# Reference: the supplement of paper PMC7666118
# Protein sequences, listed by entry. Tags and fused reporters are not part of them. Lines headed by an entry give the natural chain unless they say otherwise; changes in a name come on top.
# UniProt Q5NDL2: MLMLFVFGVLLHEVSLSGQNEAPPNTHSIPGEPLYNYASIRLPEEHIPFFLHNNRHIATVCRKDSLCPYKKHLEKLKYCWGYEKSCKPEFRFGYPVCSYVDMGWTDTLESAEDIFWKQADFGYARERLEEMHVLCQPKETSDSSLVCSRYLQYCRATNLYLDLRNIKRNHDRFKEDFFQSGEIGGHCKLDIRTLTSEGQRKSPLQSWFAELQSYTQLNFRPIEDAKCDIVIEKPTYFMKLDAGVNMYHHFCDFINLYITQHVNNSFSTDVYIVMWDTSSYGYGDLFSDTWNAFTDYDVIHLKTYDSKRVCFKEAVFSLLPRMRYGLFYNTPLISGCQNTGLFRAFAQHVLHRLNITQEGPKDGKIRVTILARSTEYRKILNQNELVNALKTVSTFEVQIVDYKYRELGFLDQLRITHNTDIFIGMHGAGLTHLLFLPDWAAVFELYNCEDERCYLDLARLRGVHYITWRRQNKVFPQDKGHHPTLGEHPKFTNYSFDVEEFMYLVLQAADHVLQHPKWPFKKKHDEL
# UniProt Q96K31: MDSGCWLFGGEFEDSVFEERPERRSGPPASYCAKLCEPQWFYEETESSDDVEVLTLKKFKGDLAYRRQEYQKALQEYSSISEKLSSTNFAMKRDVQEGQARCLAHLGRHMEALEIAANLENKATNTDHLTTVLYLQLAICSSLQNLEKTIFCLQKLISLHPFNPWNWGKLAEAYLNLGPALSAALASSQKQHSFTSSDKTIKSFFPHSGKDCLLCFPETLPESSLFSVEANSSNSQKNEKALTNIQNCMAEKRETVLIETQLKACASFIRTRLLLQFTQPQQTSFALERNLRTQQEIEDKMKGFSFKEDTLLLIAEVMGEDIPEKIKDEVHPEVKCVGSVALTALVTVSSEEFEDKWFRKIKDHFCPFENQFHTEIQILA
# UniProt Q8N5L8: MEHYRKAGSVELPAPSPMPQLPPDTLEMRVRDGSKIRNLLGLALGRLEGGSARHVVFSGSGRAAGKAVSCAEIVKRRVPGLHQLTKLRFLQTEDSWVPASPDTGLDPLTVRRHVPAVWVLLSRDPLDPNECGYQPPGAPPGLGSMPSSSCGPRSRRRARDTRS
# UniProt Q68CQ4: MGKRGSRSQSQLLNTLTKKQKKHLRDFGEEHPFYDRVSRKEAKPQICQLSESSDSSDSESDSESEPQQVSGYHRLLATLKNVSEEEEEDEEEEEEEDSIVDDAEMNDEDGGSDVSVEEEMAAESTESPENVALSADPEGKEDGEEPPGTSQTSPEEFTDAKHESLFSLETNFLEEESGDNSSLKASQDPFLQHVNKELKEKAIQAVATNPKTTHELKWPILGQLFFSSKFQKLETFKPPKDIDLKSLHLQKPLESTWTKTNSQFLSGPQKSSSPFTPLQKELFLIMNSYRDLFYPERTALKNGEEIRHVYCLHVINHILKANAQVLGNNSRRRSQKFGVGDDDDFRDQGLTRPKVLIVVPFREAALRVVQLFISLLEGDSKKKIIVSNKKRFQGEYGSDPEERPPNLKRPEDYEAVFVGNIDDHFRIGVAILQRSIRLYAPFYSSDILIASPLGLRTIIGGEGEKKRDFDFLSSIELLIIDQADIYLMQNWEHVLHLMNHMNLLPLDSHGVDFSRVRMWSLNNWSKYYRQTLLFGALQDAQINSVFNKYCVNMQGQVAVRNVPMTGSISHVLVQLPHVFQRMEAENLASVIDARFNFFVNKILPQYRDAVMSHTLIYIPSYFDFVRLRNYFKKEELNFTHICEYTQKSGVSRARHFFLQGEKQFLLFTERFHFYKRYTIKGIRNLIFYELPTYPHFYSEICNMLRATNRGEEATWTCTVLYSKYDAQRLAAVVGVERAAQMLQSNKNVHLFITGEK
# UniProt Q9Y224: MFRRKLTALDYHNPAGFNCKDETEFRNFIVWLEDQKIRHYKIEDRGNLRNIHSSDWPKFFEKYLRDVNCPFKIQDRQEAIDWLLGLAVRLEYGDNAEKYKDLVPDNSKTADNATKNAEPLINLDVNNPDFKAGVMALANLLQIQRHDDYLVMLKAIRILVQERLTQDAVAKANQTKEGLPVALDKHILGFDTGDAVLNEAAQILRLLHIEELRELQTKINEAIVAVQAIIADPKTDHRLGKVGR
# UniProt Q629K1: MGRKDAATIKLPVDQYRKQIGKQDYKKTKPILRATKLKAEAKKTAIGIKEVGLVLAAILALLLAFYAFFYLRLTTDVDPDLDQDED
# UniProt Q9NV56, whole entry: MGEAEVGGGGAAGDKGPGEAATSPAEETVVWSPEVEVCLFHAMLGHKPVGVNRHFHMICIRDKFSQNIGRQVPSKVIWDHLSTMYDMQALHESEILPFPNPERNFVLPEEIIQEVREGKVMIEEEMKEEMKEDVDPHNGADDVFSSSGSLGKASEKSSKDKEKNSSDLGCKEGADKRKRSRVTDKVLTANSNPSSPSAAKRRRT
# UniProt P55211: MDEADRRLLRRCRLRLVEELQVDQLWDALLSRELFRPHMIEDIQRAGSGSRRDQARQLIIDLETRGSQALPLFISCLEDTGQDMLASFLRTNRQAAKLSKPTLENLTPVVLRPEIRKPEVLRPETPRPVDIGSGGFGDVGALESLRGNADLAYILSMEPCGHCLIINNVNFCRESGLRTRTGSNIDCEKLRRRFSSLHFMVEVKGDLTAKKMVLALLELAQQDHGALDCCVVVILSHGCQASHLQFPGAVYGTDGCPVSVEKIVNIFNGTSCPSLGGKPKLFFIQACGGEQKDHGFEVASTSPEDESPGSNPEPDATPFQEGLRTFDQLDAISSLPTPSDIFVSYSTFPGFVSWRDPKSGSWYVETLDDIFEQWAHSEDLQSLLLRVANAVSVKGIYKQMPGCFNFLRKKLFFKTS
# UniProt Q6NVV7: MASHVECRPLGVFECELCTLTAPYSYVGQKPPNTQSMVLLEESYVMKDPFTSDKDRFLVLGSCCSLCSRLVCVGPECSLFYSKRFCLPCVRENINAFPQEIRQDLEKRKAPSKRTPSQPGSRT
# UniProt Q9H9S4: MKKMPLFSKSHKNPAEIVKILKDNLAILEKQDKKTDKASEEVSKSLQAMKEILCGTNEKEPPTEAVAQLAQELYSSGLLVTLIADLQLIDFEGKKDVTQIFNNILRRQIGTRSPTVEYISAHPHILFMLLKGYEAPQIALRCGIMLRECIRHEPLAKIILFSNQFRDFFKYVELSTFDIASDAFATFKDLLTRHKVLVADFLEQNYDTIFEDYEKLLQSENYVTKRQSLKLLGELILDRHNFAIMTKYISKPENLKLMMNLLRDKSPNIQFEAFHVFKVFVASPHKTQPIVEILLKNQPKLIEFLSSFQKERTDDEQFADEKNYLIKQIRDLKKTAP
# UniProt Q7Z6I8: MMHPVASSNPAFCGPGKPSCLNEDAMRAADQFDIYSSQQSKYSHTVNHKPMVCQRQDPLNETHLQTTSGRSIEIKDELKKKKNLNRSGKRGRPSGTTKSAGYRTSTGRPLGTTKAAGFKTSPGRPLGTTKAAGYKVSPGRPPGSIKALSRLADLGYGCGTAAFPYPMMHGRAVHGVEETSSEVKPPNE
# UniProt Q5TEJ8: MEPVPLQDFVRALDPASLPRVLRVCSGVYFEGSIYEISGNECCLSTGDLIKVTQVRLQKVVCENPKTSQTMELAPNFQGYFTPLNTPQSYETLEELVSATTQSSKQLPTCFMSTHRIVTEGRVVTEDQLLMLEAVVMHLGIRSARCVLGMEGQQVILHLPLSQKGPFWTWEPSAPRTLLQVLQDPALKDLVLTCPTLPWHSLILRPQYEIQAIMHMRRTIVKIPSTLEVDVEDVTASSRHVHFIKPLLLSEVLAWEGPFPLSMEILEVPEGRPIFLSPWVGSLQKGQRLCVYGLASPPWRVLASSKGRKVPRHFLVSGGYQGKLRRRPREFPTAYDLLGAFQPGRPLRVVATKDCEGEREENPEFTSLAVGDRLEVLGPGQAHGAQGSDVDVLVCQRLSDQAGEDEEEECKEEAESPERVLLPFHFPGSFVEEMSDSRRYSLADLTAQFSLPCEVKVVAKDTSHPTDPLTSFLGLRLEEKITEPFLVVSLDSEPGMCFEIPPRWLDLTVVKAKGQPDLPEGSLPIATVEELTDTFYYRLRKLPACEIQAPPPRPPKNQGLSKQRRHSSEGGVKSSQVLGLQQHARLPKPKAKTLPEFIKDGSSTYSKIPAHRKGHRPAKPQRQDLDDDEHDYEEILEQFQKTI
# UniProt Q9HA77: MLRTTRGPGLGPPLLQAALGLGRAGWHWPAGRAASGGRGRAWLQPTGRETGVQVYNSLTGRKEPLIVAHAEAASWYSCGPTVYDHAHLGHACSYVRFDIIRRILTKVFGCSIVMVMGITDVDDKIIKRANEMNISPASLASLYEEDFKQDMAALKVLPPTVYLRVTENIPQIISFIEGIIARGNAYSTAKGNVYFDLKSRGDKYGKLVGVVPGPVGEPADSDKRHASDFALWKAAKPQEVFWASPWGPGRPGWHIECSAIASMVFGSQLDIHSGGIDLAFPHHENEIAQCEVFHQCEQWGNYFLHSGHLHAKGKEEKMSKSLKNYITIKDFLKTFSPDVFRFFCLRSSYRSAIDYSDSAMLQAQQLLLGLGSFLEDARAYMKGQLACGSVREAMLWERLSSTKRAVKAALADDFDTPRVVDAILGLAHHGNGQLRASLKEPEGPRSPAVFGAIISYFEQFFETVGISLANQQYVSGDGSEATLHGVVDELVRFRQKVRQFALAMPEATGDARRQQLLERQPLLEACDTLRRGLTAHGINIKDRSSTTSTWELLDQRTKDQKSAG
# UniProt Q9BU76: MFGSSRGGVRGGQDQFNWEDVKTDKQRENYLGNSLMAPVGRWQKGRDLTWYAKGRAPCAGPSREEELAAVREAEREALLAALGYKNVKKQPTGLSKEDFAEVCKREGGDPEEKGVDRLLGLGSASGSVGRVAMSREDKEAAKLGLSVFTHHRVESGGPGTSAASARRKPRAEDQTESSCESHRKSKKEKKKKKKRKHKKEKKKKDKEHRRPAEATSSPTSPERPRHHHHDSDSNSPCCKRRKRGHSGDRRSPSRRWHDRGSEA
# UniProt Q8N6N3: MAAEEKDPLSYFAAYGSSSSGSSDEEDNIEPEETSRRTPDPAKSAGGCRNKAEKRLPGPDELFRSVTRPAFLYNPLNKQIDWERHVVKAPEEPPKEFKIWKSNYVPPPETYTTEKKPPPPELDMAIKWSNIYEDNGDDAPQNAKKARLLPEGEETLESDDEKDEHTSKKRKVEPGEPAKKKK
# UniProt Q9P1F3: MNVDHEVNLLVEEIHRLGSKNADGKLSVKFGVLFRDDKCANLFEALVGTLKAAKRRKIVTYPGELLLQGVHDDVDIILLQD
# UniProt Q96DM3: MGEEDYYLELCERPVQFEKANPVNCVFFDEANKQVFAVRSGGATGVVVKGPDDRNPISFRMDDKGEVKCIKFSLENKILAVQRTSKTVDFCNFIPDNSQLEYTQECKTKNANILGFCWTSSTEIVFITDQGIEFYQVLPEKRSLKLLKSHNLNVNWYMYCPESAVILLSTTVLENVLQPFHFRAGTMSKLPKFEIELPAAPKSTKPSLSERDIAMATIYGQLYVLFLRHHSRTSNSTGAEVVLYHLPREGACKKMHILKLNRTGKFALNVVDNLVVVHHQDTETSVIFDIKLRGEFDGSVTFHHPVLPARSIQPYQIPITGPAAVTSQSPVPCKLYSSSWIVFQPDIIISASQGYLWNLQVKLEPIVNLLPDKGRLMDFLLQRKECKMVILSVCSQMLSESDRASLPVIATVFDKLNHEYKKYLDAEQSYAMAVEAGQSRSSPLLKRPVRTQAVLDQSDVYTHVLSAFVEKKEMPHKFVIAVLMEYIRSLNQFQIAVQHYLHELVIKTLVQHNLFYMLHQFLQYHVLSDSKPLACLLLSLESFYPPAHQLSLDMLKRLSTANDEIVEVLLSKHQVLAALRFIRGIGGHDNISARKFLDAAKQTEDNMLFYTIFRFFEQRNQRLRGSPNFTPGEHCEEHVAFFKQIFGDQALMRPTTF
# UniProt Q9BU79: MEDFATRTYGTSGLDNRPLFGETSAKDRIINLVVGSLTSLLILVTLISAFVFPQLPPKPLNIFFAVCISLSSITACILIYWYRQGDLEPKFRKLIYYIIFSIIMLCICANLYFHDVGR
# UniProt Q9H6D7: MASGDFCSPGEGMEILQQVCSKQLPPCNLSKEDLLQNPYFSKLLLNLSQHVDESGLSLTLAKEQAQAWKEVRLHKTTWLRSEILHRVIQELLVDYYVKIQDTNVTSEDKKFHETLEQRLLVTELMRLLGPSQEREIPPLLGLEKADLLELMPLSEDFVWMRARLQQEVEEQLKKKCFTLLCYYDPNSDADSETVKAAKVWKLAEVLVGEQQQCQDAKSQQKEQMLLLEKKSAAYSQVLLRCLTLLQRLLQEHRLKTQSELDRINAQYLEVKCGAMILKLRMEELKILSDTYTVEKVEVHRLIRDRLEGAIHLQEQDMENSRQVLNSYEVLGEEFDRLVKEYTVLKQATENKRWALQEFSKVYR
# UniProt Q9NSI2: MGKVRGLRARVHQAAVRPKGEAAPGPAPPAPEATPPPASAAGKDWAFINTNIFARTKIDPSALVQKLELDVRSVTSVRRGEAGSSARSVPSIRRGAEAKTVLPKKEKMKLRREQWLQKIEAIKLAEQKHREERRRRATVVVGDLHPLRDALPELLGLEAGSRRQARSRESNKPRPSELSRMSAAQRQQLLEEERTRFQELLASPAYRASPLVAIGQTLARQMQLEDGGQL
# The other results are listed elsewhere or left out.
# Compound: COc1ccc(Cn2ccc3ccc(C(=O)NO)cc32)cc1
# Assay: dose-dependent thermal stabilisation call (2D-TPP, DLPTP, 10% FDR) (binary (1 = stabilised)); higher = stabilised by the compound
# Details: system: HL-60 intact cells; concentration range 0.04-10 µM
row,Target,dose-dependent thermal stabilisation call
1,C3ORF64 (UniProt Q5NDL2),inactive: 0
2,C8ORF76 (UniProt Q96K31),inactive: 0
3,C9ORF23 (UniProt Q8N5L8),inactive: 0
4,C1ORF107 (UniProt Q68CQ4),inactive: 0
5,C14ORF166 (UniProt Q9Y224),inactive: 0
6,C8ORF83 (UniProt Q629K1),inactive: 0
7,C18ORF25 (UniProt Q96B23),inactive: 0
8,C20ORF20 (UniProt Q9NV56),inactive: 0
9,CASP9 (UniProt P55211),inactive: 0
10,C22ORF40 (UniProt Q6NVV7),inactive: 0
11,CAB39L (UniProt Q9H9S4),inactive: 0
12,C5ORF24 (UniProt Q7Z6I8),inactive: 0
13,CBFB (UniProt Q13951),inactive: 0
14,C1ORF38 (UniProt Q5TEJ8),inactive: 0
15,CARS2 (UniProt Q9HA77),inactive: 0
16,C18ORF19 (UniProt Q96ND0),inactive: 0
17,C1ORF35 (UniProt Q9BU76),inactive: 0
18,C14ORF159 (UniProt Q7Z3D6),inactive: 0
19,C1ORF52 (UniProt Q8N6N3),inactive: 0
20,C6ORF115 (UniProt Q9P1F3),active: 1
21,C18ORF8 (UniProt Q96DM3),inactive: 0
22,C7ORF23 (UniProt Q9BU79),inactive: 0
23,CAPZA2 (UniProt P47755),inactive: 0
24,C14ORF94 (UniProt Q9H6D7),inactive: 0
25,C21ORF70 (UniProt Q9NSI2),inactive: 0

# Already shown: entries from further up.
row,Target,dose-dependent thermal stabilisation call
14,C1ORF38 (UniProt Q5TEJ8),inactive: 0
15,CARS2 (UniProt Q9HA77),inactive: 0
